The target in assay [1] is Glutathione-Serine-Transferase/AP-2α (GST-AP2) hybrid protein (UniProt P05549). The experiment in a line: pull-down; GST-AP2 on MagneGST beads incubated with BT474 nuclear proteins in PBS at RT; eluted with Laemmli buffer; immunoblotting with Ku specific antibodies; also after treatment of the beads with increasing concentrations of DNase I (1 h, 37°C); only the target purified.

Sequences of proteins named here, by UniProt entry; tags and fusion partners are left off.
UniProt P05549: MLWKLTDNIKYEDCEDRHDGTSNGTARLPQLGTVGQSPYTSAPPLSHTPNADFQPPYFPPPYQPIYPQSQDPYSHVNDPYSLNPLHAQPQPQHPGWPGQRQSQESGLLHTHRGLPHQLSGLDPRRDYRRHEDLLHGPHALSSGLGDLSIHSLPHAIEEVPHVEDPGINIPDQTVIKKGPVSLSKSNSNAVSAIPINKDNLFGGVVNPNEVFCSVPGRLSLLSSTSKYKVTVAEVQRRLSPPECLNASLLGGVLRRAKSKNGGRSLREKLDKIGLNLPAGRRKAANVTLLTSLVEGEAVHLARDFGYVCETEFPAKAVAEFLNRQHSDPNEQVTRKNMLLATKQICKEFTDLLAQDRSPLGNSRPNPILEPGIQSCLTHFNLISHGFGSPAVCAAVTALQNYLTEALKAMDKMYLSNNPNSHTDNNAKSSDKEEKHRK
UniProt P13010: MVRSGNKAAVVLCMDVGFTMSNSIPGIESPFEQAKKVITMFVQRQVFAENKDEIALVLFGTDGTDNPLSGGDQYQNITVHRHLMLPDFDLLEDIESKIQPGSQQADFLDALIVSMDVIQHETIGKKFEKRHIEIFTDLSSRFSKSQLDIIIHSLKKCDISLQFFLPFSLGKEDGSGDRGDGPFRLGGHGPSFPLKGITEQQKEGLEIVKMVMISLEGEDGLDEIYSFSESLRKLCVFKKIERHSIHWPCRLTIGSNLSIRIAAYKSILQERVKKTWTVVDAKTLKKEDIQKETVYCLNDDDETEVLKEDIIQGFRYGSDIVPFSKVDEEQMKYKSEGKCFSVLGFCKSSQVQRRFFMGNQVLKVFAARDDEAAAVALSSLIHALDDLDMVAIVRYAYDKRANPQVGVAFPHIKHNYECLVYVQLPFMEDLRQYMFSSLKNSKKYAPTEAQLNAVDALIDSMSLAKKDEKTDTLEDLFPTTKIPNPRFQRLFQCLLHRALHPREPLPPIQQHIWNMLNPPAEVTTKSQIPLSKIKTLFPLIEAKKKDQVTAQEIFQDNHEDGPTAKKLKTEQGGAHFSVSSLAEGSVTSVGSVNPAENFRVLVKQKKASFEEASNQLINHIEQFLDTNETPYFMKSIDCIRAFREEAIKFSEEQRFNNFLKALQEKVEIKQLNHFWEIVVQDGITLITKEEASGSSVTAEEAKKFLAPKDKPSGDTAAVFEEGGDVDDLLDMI
UniProt P12956: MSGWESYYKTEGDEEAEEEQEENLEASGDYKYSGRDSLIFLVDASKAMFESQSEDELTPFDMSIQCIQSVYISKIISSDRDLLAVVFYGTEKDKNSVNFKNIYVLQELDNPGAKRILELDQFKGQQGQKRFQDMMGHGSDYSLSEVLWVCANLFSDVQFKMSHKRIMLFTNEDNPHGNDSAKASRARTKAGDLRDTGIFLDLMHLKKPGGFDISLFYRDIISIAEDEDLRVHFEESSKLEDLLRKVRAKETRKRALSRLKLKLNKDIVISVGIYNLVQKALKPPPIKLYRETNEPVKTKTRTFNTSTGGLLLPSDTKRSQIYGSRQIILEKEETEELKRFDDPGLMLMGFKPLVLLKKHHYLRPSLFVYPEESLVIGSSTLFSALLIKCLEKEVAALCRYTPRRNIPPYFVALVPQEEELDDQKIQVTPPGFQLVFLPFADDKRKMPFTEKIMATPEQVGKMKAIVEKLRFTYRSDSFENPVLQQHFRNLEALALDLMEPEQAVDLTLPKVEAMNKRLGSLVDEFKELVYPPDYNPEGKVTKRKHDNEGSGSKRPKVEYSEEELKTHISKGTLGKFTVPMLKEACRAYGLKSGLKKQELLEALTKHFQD

The target in assay [2] is AP-2α (human (endogenous; all cell lines of the paper are human)) (UniProt P05549). The experiment in a line: co-IP; Dynabeads Protein G with anti-AP-2α (C-18), Ku70 (C-19), Ku86 (C-20) antibodies or control antibody; proteins revealed by immunoblotting; endogenous proteins. On the technique in general: In western blotting, separated proteins are transferred to a membrane and probed.

No constants are given. Whether binding was seen depends on the method and setting. Binding seen in cells or lysates may run through a third protein. Some binding calls cover weakened binding; strength is not graded here.

In the case of Ku80 (from UniProt P13010 1-732), the binding entry in assay [1] and in assay [2] was “binds” each time.
On to Ku70 (from UniProt P12956 1-609), for which the binding entry in assay [1] and in assay [2] was “binds” throughout.

The record behind these values is paper PMC2815545.
